# According to ChEMBL document CHEMBL5608208, “Design, synthesis of griseofamine A derivatives and development of potent antibacterial agents against MRSA” (Eur J Med Chem, 2024):
# Columns and labels:
# Enterococcus faecium = assay: Antibacterial activity against Enterococcus faecium ATCC 700221 incubated for 18 hrs by serial two-fold dilution method; format: functional
# Bacillus subtilis = assay: Antibacterial activity against Bacillus subtilis CMCC 63501 incubated for 18 hrs by serial two-fold dilution method; format: functional
smiles,measurement,setting,value
CN[C@H](CC(C)C)C(=O)N[C@H]1C(=O)N[C@@H](CC(N)=O)C(=O)N[C@H]2C(=O)N[C@H]3C(=O)N[C@H](C(=O)N[C@H](C(=O)O)c4cc(O)cc(O)c4-c4cc3ccc4O)[C@H](O)c3ccc(c(Cl)c3)Oc3cc2cc(c3O[C@@H]2O[C@H](CO)[C@@H](O)[C@H](O)[C@H]2O[C@H]2C[C@](C)(N)[C@H](O)[C@H](C)O2)Oc2ccc(cc2Cl)[C@H]1O [VANCOMYCIN],MIC,Enterococcus faecium,3.5 µg/mL
same,MIC,Bacillus subtilis,0.23 µg/mL
